The experiment has as its system rabbit femoral arteries. Briefly: in vitro vasoconstriction assay (vascular reactivity). The experiment is classed as cell-based. The conditions noted are these: 10^-5 M nifedipine added after low molecular weight inhibitors.

Take `COC(=O)C1=C(C)NC(C)=C(C(=O)OC)C1c1ccccc1[N+](=O)[O-]` [nifedipine]: the reversal of vasoconstriction result was “vasoconstriction was reversed”.
